Some of the results follow. Small differences around the control level are noise.

Protein sequences, listed by entry. Tags and fused reporters are not part of them. Lines headed by an entry give the natural chain unless they say otherwise; changes in a name come on top.
UniProt Q3U1T9: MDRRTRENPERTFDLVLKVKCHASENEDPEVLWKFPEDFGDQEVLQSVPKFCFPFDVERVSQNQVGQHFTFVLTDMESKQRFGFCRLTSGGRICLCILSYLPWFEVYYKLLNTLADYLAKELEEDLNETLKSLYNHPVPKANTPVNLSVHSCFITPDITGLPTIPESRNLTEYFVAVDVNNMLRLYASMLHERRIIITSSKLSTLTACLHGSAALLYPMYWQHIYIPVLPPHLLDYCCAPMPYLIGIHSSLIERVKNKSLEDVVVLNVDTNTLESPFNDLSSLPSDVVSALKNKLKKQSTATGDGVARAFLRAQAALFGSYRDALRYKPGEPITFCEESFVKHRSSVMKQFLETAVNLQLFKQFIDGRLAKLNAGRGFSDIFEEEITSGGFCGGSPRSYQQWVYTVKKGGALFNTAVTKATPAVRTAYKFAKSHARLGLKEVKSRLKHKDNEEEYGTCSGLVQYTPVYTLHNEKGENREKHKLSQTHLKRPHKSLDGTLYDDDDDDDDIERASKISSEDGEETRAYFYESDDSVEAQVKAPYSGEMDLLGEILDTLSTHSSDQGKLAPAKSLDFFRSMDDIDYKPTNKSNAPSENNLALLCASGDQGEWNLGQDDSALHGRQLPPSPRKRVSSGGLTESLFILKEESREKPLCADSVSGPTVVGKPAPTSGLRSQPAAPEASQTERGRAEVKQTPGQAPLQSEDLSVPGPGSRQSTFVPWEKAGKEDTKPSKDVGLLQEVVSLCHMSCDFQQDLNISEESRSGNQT
UniProt Q3TTL0: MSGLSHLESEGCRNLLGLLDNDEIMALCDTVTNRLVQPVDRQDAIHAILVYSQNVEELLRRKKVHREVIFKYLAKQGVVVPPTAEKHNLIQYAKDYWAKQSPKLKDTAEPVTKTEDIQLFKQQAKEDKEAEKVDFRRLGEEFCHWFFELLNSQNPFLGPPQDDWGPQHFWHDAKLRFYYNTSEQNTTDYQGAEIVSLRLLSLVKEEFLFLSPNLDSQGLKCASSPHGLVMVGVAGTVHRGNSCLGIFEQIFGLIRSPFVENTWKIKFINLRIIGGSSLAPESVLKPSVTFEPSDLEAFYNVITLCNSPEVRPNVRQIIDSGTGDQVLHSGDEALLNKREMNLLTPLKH
UniProt Q2PZL6: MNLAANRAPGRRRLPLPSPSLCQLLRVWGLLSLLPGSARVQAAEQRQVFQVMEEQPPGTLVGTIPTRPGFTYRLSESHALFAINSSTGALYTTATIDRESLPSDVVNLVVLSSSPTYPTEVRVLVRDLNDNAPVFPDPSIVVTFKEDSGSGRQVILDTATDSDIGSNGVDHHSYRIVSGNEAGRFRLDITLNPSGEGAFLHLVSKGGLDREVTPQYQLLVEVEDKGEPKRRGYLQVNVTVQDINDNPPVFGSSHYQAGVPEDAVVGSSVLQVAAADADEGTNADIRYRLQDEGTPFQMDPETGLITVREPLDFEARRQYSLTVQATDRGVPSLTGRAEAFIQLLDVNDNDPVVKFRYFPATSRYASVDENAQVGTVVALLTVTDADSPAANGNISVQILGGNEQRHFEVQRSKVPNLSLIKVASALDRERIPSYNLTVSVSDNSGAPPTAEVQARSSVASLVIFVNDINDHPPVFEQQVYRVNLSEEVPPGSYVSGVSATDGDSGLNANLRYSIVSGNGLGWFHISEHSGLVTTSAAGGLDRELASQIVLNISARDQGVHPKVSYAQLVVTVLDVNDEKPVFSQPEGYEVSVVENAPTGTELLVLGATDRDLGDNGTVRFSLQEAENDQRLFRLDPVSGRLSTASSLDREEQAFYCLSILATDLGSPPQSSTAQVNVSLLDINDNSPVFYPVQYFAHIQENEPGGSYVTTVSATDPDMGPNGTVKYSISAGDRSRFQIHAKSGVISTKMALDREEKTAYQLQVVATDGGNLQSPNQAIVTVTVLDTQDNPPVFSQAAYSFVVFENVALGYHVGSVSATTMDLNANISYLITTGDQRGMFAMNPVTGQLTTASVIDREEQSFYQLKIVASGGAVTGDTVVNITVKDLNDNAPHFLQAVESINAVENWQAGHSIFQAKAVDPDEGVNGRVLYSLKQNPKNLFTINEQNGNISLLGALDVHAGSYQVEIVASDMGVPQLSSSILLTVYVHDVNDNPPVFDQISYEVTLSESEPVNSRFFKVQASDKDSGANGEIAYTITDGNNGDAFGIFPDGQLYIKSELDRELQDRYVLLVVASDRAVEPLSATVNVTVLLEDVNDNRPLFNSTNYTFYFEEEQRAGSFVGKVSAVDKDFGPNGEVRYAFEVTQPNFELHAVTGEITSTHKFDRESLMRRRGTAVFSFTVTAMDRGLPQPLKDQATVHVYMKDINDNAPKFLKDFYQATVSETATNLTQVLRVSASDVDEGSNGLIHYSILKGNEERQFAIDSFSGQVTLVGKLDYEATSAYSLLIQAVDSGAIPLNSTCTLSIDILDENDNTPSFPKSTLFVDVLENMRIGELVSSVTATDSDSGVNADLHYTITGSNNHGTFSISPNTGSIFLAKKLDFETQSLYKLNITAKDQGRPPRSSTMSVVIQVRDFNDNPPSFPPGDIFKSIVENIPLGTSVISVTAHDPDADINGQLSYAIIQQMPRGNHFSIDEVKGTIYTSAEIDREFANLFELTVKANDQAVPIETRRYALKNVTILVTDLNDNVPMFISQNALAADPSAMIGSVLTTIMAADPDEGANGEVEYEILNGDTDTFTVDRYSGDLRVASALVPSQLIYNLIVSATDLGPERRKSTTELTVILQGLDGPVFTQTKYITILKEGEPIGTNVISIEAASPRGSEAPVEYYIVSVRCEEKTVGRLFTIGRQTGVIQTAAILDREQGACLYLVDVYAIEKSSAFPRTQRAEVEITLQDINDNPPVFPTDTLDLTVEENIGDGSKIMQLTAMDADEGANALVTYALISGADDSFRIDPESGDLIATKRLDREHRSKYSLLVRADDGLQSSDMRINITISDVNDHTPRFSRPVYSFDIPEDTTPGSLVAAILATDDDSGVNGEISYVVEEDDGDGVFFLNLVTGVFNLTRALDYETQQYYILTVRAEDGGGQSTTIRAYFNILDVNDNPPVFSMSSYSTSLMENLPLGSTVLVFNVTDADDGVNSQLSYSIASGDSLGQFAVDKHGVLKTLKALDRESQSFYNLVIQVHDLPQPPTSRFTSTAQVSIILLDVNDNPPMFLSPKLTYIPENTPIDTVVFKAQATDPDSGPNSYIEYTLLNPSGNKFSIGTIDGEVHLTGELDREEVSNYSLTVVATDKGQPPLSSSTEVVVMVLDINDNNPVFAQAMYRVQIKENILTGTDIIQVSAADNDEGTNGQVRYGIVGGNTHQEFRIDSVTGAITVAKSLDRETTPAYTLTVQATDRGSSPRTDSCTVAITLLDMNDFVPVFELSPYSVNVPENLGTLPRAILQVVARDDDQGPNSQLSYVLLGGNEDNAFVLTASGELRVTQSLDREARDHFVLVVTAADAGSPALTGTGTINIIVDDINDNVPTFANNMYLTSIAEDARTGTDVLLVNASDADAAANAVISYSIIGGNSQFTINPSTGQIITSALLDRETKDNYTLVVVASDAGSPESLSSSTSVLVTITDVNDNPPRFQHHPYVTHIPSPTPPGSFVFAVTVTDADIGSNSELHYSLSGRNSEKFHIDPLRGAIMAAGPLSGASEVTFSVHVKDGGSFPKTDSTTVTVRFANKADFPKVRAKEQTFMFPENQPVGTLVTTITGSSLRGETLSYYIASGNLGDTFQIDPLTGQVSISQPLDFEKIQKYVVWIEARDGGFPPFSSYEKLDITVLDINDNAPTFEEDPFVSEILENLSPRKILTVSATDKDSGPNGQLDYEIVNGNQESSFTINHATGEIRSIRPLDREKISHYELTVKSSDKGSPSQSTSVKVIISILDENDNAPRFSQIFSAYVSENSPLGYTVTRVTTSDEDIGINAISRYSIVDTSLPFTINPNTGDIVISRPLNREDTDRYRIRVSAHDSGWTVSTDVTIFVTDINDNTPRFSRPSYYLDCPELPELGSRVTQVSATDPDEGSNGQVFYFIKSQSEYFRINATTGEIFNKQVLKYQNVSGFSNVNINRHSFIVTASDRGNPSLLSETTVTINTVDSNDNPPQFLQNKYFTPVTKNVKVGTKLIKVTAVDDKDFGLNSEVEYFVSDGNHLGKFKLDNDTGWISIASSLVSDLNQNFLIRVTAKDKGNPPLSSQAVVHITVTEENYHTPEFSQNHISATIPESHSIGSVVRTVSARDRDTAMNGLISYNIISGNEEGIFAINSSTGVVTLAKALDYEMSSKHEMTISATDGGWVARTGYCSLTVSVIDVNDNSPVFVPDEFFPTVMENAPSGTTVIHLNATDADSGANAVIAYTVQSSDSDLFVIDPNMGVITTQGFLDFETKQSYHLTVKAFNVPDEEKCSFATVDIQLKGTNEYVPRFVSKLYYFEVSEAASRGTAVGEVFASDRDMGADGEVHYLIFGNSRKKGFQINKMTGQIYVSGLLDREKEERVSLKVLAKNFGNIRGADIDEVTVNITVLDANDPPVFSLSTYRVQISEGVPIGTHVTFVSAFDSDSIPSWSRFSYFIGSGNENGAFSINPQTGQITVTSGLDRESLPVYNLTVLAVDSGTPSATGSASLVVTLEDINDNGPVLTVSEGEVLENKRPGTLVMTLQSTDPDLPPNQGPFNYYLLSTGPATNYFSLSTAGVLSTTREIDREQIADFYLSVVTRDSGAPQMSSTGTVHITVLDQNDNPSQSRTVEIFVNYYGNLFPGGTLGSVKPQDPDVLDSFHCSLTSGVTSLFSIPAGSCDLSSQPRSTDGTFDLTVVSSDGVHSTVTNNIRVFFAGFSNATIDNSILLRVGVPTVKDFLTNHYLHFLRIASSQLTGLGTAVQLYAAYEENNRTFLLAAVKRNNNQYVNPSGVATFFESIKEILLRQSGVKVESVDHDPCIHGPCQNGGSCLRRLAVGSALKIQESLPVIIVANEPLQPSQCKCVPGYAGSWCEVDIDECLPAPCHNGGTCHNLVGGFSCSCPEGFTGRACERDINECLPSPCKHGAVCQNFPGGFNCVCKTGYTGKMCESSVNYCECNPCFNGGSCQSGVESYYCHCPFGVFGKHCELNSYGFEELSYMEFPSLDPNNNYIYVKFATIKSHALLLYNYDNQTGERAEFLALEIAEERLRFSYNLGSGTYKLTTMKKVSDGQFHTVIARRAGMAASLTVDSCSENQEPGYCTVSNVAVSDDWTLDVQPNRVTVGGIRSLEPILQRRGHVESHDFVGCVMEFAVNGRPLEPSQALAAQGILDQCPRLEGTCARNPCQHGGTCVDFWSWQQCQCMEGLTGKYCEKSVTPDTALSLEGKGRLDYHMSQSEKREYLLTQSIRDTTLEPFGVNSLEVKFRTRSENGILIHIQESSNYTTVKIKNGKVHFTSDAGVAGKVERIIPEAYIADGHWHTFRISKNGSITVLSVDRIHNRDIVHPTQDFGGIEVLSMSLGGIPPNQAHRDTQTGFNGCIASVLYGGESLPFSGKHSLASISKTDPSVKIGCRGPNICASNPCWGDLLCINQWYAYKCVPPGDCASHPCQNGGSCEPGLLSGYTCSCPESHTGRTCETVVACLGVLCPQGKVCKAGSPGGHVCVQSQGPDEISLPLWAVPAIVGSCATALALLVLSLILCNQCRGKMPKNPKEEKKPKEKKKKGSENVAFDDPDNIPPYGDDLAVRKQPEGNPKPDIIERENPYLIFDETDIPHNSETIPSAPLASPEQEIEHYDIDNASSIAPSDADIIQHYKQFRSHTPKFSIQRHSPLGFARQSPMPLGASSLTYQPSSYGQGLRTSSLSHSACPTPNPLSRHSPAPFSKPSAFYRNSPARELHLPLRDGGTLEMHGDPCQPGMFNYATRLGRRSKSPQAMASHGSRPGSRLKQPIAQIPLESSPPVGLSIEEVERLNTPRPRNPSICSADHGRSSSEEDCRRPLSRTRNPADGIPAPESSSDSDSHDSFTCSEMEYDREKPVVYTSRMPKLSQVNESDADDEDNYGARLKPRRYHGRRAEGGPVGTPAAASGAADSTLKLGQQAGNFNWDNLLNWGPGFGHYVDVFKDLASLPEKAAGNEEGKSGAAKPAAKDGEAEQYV

Compound in the experiment: CN[C@@H]1C[C@H]2O[C@@](C)([C@@H]1OC)n1c3ccccc3c3c4c(c5c6ccccc6n2c5c31)C(=O)NC4 [staurosporine]
As to the kind of experiment: log2 fold change of tryptic peptide abundance, ligand vs vehicle (limited proteolysis) (log2 ratio); higher = more trypsin-susceptible (destabilized). To be noted: ligand concentration: 20 uM; sample: mouse liver crude lysate; replicate design: treated separately.
Take “UniProt Q3U1T9 (peptide sequence: GGALFNTAVTK, peptide start residue: 409)”: the log2 fold change turned out to be 0.32.

For “UniProt Q3TTL0 (peptide sequence: LKDTAEPVTK, peptide start residue: 104)”, the log2 fold change was -0.305.

In the case of “UniProt Q3U1N2 (peptide sequence: AVLLAEAAR, peptide start residue: 1092)”, the log2 fold change came to 0.193.

In the case of “UniProt Q2PZL6 (peptide sequence: AVDPDEGVNGR, peptide start residue: 917)”, the log2 fold change was 0.222.

For the origin of these results see the supplement of paper PMC12819154, “High-throughput peptide-centric local stability assay extends protein–ligand identification to membrane proteins, tissues and bacteria” (Nature Structural & Molecular Biology, 2025).
